The values that follow come from the supplement of paper PMC9135407.

This test has as its system primary human hepatic stellate cells (donor 1). In words: percent Bodipy-positive cells; higher = more lipid droplet accumulation. The settings on record: 48 h.
The mark [1] stands for this setting: library stock concentration: 10 mM.
The mark [2] stands for this setting: library stock concentration: 3.33 mM.
Where [3] appears, read: library stock concentration: 1 mM.

Where “and” joins values, the source holds several entries; their conditions need not be identical. Equal entries are not always repeated. Structures can show the parent of a compound that is named as a salt. ± gives the standard deviation of the averaged measurements. Some of the results follow. Part of the spread comes from offsets between plates or batches.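 Primary human stellate myofibroblasts activated in culture; inactivation shown by regained lipid droplets. Readout: fraction of Hoechst-counted cells exceeding a per-plate Bodipy threshold, duplicate wells, each plate with DMSO negative and nortriptyline positive controls. Hits: control-normalized score beyond the plate's top-tenth-percentile nortriptyline wells, or among its three best wells. Final well concentrations unstated.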

Regarding `CNCC[C@H](Oc1ccc(C(F)(F)F)cc1)c1ccccc1` [S-(+)-Fluoxetine hydrochloride], under setting [1], the “percent Bodipy-positive cells” value turned out to be 97.8 ± 3.2%.

`COc1cc(C(=O)N2CCOCC2)cc(OC)c1OC` [Trimetozine]: the “percent Bodipy-positive cells” value (library stock concentration: 7.1 mM) was 11.9 ± 7.4%.

As for `CC(=O)OCC(=O)[C@@]1(O)CC[C@H]2[C@@H]3CCC4=CC(=O)CC[C@]4(C)[C@H]3C(=O)C[C@@]21C`, the “percent Bodipy-positive cells” value under setting [1] was 36.4 ± 5.8%.

For `CC(=O)OCC(=O)[C@@]1(O)CC[C@H]2[C@@H]3CCC4=CC(=O)CC[C@]4(C)[C@H]3C(=O)C[C@@]21C` [Cortisone acetate], the “percent Bodipy-positive cells” value by setting is: under setting [2], 10.4 ± 1.3%; (library stock concentration: 5 mM) 2.94 ± 0.9%; under setting [1], 6.93% and 11.2%.

As to `CC(=O)OCC(=O)[C@@]1(O)CC[C@H]2[C@@H]3CCC4=CC(=O)CC[C@]4(C)[C@H]3C(=O)C[C@@]21C` [Cortisone 21-acetate], the “percent Bodipy-positive cells” value under setting [1] is 52.6 ± 1.1%.

Turning to `CC(=O)OCC(=O)[C@@]1(O)CC[C@H]2[C@@H]3CCC4=CC(=O)C=C[C@]4(C)[C@@]3(F)[C@@H](O)C[C@@]21C` [Isoflupredone acetate], the “percent Bodipy-positive cells” value is 20.6 ± 0.65%.

With `N=C(NO)NCC[C@H](N)C(=O)O`, under setting [3], the “percent Bodipy-positive cells” value came to 8.64 ± 2.1%.

With `C#C[C@]1(O)CC[C@H]2[C@@H]3[C@H](C)CC4=C(CCC(=O)C4)[C@H]3CC[C@@]21C`, the “percent Bodipy-positive cells” value under setting [1] was 13.1 ± 3.5%.

`C#C[C@]1(O)CC[C@H]2[C@@H]3[C@H](C)CC4=C(CCC(=O)C4)[C@H]3CC[C@@]21C` [Tibolone]: the “percent Bodipy-positive cells” value runs as follows: under setting [3], 10.6 ± 4.2%; (library stock concentration: 6.4 mM) 6.79 ± 2.6%.

Take `CC(C)(C)c1cc(C(=O)C(C#N)=NNc2cccc(Cl)c2)no1`: the “percent Bodipy-positive cells” value under setting [2] is 40.2 ± 2.1% and the “percent Bodipy-positive cells” value under setting [1] came out at 35.4 ± 11%.

Consider `Cn1cc(C(=O)OCC2CCN(CCNS(C)(=O)=O)CC2)c2ccccc21`, for which, under setting [1], the “percent Bodipy-positive cells” value was 33.7 ± 3.2%.

On to `O=C(O)COc1cccc(-c2ocnc2-c2nc(-c3ccccc3)c(-c3ccccc3)o2)c1`, for which the “percent Bodipy-positive cells” value under setting [1] was determined as 6.88 ± 0.82%.

`S=C=Nc1ccc(N=C=S)cc1`: the “percent Bodipy-positive cells” value under setting [1] amounted to 38.9 ± 10%.

Turning to `C=CC(=O)Nc1cc2c(Nc3ccc(F)c(Cl)c3)ncnc2cc1C#CC(C)(C)N1CCN(C)CC1`, the “percent Bodipy-positive cells” value (library stock concentration: 400 uM) was determined as 100%.

Take `C[C@@H](CN1CCC(n2c(=O)[nH]c3cc(Cl)ccc32)CC1)NC(=O)c1ccc2ccccc2c1`: the “percent Bodipy-positive cells” value under setting [3] was determined as 15.4 ± 0.69%.

Turning to `OC[C@@H](O)[C@@H](O)[C@H](O)[C@@H](O)CO` [Sorbitol], the “percent Bodipy-positive cells” value runs as follows: under setting [2], 8.56 ± 0.54%; under setting [1], 16.5 ± 3.7%.

`OC[C@@H](O)[C@@H](O)[C@H](O)[C@@H](O)CO`: the “percent Bodipy-positive cells” value under setting [1] was 33.4 ± 4.7%.

With `CC1CCC(NC(=O)N(CCCl)N=O)CC1` (stereo unspecified) [Semustine], the “percent Bodipy-positive cells” value (library stock concentration: 8.1 mM) was determined as 8.5 ± 2.9% and the “percent Bodipy-positive cells” value under setting [1] was 34.3 ± 5.1%.

`CN[C@@H](C)C(=O)N[C@H](C(=O)N1CCC[C@H]1C(=O)Nc1snnc1-c1ccccc1)C1CCCCC1`: the “percent Bodipy-positive cells” value is, setting by setting: under setting [2], 20.7 ± 4.1%; under setting [1], 80.2 ± 9.4%.

As for `Cc1nc(N=Nc2ccc(C(=O)O)cc2)c(COP(=O)(O)O)c(C=O)c1O`, the “percent Bodipy-positive cells” value under setting [1] is 24.9 ± 1.1%.

For the compound `C[C@H]1C[C@H]2[C@@H]3CCC4=CC(=O)C=C[C@]4(C)[C@@]3(Cl)[C@@H](O)C[C@]2(C)[C@@]1(O)C(=O)CO` [Beclomethasone], the “percent Bodipy-positive cells” value under setting [1] is 7.09% and 24.9%.

For the compound `Oc1ccc(O)cc1` [Hydroquinone], the “percent Bodipy-positive cells” value by setting is: under setting [1], 43% and 57.1%; (library stock concentration: 18.2 mM) 9.86 ± 1%.

Consider `CN1CCN(c2cccc(Nc3nc4c(-c5ccc(S(C)(=O)=O)cc5)cccn4n3)c2)CC1`, for which the “percent Bodipy-positive cells” value is 9.91 ± 0.28% under setting [2] and 90.7 ± 1.7% under setting [1].

For `COc1cc2nc(N3CCN(C(=O)C4CCCO4)CC3)nc(N)c2cc1OC` (stereo unspecified) [Terazosin], the “percent Bodipy-positive cells” value turned out to be 11.2 ± 3.8% (library stock concentration: 9.6 mM) and 47.2 ± 3.2% under setting [1].

In the case of `COc1cc2nc(N3CCN(C(=O)C4CCCO4)CC3)nc(N)c2cc1OC` (stereo unspecified) [Terazosin hydrochloride], the “percent Bodipy-positive cells” value came to 10.2 ± 1.3%. For the same compound, the “percent Bodipy-positive cells” value under setting [1] amounted to 7.97 ± 2.1%.

In the case of `COc1cc2nc(N3CCN(C(=O)C4CCCO4)CC3)nc(N)c2cc1OC` (stereo unspecified) [Terazosin HCl], the “percent Bodipy-positive cells” value turned out to be 9.91 ± 5.1% under setting [2], 5.5 ± 1.3% (library stock concentration: 5.2 mM) and 18.2 ± 9.2% under setting [1].

For the compound `CN(C)CCC1(c2ccc(Cl)cc2)Cc2ccccc2C(=O)O1` (stereo unspecified), the “percent Bodipy-positive cells” value under setting [1] worked out at 40.5 ± 1.1%.

For the compound `CC(C)(O)CC[C@@H](O)[C@](C)(O)[C@H]1CC[C@@]2(O)C3=CC(=O)[C@@H]4C[C@@H](O)[C@@H](O)C[C@]4(C)[C@H]3CC[C@]12C` [20-Hydroxyecdysone], the “percent Bodipy-positive cells” value reads like this: under setting [2], 5.99 ± 2.1%; under setting [1], 9 ± 4.1%.

As to `Cc1cc2nc3ccc(N(C)C)cc3[s+]c2cc1N`, under setting [1], the “percent Bodipy-positive cells” value stood at 63 ± 2.1%.

Consider `CNC(=O)c1nn(C)c2c1C(C)(C)Cc1cnc(Nc3ccc(N4CCN(C)CC4)cc3)nc1-2`, for which the “percent Bodipy-positive cells” value reads like this: under setting [2], 52 ± 8.2%; under setting [1], 38.7 ± 7.6%.

As for `CC(=O)N[C@@H](CSC/C=C(\C)CCC=C(C)C)C(=O)O` [N-Acetyl-S-geranyl-L-cysteine], the “percent Bodipy-positive cells” value under setting [3] turned out to be 15.5 ± 12%.

Regarding `CC(=O)NC(C(=O)O)C(C)(C)SN=O` (stereo unspecified) [S-Nitroso-N-acetylpenicillamine], under setting [1], the “percent Bodipy-positive cells” value stood at 33 ± 16%.

As for `CC(=O)NC(C(=O)O)C(C)(C)SN=O` (stereo unspecified) [Snap (s-nitroso-n-acetylpenicillamine)], the “percent Bodipy-positive cells” value under setting [1] amounted to 40.3 ± 1.2%.

As to `Nc1ccc(S(=O)(=O)Nc2ccc(Cl)nn2)cc1` [Sulfachlorpyridazine], the “percent Bodipy-positive cells” value runs as follows: (library stock concentration: 7 mM) 22.5 ± 10%; under setting [1], 28.3 ± 4.6%.

In the case of `Nc1ccc(S(=O)(=O)Nc2ccc(Cl)nn2)cc1` [Sulfachloropyridazine], the “percent Bodipy-positive cells” value came to 12.5 ± 1.7%.
